Measurements from publication PMC9481931.
These are yes or no findings as the source states them, for the method shown. Binding seen in cells or lysates may run through a third protein. Binding calls can cover weak binding; strength is not graded here.

Molecular target: T1, Ataxin-2 (Drosophila melanogaster (endogenous in embryo extracts)) (UniProt Q8SWR8)
T1 sequence: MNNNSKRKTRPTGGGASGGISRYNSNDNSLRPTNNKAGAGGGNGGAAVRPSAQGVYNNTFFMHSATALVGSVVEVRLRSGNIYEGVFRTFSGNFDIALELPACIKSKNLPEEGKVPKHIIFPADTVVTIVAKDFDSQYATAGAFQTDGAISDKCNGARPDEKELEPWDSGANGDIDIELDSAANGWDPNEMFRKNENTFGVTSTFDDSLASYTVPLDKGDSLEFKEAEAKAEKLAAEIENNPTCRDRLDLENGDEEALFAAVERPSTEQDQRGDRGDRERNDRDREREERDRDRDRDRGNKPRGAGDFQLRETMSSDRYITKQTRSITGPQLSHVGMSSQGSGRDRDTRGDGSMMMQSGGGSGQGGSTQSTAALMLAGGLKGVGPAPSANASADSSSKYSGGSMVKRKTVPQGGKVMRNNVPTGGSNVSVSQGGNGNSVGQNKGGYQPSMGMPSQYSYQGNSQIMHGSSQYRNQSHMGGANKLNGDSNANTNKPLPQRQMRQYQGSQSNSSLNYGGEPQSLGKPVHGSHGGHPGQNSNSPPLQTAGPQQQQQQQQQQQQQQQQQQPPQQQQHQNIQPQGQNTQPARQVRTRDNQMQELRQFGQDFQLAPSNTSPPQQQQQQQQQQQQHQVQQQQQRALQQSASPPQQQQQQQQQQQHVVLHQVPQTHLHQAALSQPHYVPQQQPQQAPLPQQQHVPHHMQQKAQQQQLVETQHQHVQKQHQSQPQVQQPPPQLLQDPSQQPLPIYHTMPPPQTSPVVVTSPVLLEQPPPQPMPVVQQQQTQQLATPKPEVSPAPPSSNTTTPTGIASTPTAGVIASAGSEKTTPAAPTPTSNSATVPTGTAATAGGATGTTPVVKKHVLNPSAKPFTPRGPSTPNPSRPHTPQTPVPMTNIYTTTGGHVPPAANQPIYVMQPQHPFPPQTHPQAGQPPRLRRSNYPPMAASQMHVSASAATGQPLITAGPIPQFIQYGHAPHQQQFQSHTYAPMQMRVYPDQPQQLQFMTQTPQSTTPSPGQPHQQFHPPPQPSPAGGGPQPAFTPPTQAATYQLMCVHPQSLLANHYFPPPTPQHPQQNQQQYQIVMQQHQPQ
Test: co-IP; small-scale IP with 2 ul Atx2 serum on Protein-A Dynabeads, 700 ug embryo extract (wild type and Dicer-2 null), performed as in Fig 3D (RNases); Western blot; interactions with Wispy and Tyf fully preserved in Dicer-2 null extracts (Fig 3E)

## Twenty-four
  binding: binds
